From patent publication US9011589B2, “Magenta dyes and their preparation methods and applications” (Dalian University of Technology, priority 2012, dated 2015)

Experiment: Wet resistance of the printed images (bleeding)
Design: key: ∘: No bleeding; Δ: Slight bleeding; x: Notable bleeding
Conditions: bleeding judged with bare eyes; 50° C., 90% RH, 168 h

| Structure (SMILES) | Water resistance of printed images |
| --- | --- |
| O=S(=O)([O-])c1cc(Nc2nc(Nc3ccc(/C=C/c4ccc(Nc5nc(Nc6cc(S(=O)(=O)[O-])cc7cc(S(=O)(=O)[O-])c(N=Nc8ccccc8)c(O)c67)nc(N6CCOCC6)n5)cc4S(=O)(=O)[O-])c(S(=O)(=O)[O-])c3)nc(N3CCOCC3)n2)c2c(O)c(N=Nc3ccccc3)c(S(=O)(=O)[O-])cc2c1.[Na+].[Na+].[Na+].[Na+].[Na+].[Na+] [C.I. direct red 227, reference compound] | Δ |
| O=C(Nc1cc(S(=O)(=O)[O-])cc2cc(S(=O)(=O)[O-])c(N=Nc3ccc4cc(S(=O)(=O)CCOS(=O)(=O)[O-])ccc4c3S(=O)(=O)[O-])c(O)c12)c1ccccc1.[Na+].[Na+].[Na+].[Na+] [C.I. reactive red 180, reference compound] | Δ |
| O=C([O-])CCCS(=O)(=O)c1ccc(S(=O)(=O)[O-])c(Nc2cc(S(=O)(=O)[O-])c3[nH]c(=O)c(C(=O)[O-])c4c3c2C(=O)c2ccccc2-4)c1.[Na+].[Na+].[Na+].[Na+] [Dm1] | ∘ |
| O=C([O-])CCCS(=O)(=O)c1ccc(S(=O)(=O)[O-])c(Nc2cc(S(=O)(=O)[O-])c3[nH]c(=O)c(C(=O)OCc4ccccc4)c4c3c2C(=O)c2ccccc2-4)c1.[Na+].[Na+].[Na+] [Dm3] | ∘ |
| Cc1ccc(COC(=O)c2c3c4c(c(Nc5cc(S(=O)(=O)CCCC(=O)[O-])ccc5S(=O)(=O)[O-])cc(S(=O)(=O)[O-])c4[nH]c2=O)C(=O)c2ccccc2-3)cc1.[Na+].[Na+].[Na+] [Dm5] | ∘ |
| O=C([O-])CCCS(=O)(=O)c1ccc(S(=O)(=O)[O-])c(Nc2cc(S(=O)(=O)[O-])c3[nH]c(=O)c(C(=O)OCc4cccc([N+](=O)[O-])c4)c4c3c2C(=O)c2ccccc2-4)c1.[Na+].[Na+].[Na+] [Dm7] | ∘ |
| O=C([O-])CCCS(=O)(=O)c1cc(S(=O)(=O)[O-])c(Nc2cc(S(=O)(=O)[O-])c3[nH]c(=O)c(C(=O)[O-])c4c3c2C(=O)c2ccccc2-4)c(S(=O)(=O)[O-])c1.[Na+].[Na+].[Na+].[Na+].[Na+] [Dp2] | ∘ |
| O=C([O-])CCCS(=O)(=O)c1cc(S(=O)(=O)[O-])c(Nc2cc(S(=O)(=O)[O-])c3[nH]c(=O)c(C(=O)OCc4ccccc4)c4c3c2C(=O)c2ccccc2-4)c(S(=O)(=O)[O-])c1.[Na+].[Na+].[Na+].[Na+] [Dp4] | ∘ |
| O=C([O-])CCCS(=O)(=O)c1cc(S(=O)(=O)[O-])c(Nc2cc(S(=O)(=O)[O-])c3[nH]c(=O)c(C(=O)OCc4cccc(Cl)c4)c4c3c2C(=O)c2ccccc2-4)c(S(=O)(=O)[O-])c1.[Na+].[Na+].[Na+].[Na+] [Dp10] | ∘ |
| O=C([O-])CCCS(=O)(=O)c1cc(S(=O)(=O)[O-])c(Nc2cc(S(=O)(=O)[O-])c3[nH]c(=O)c(C(=O)OCc4cccc(S(=O)(=O)[O-])c4)c4c3c2C(=O)c2ccccc2-4)c(S(=O)(=O)[O-])c1.[Na+].[Na+].[Na+].[Na+].[Na+] [Dp14] | Δ |
| O=C([O-])CCCS(=O)(=O)c1cc(S(=O)(=O)[O-])c(Nc2cc(S(=O)(=O)[O-])c3[nH]c(=O)c(C(=O)OCc4cccc5ccccc45)c4c3c2C(=O)c2ccccc2-4)c(S(=O)(=O)[O-])c1.[Na+].[Na+].[Na+].[Na+] [Dp17] | ∘ |
| Cn1c(=O)c(C(=O)OCc2cccc3ccccc23)c2c3c(c(Nc4ccc(S(=O)(=O)[O-])cc4S(=O)(=O)[O-])ccc31)C(=O)c1ccccc1-2.[Na+].[Na+] [Dye2, reference compound] | ∘ |
